Measurements reported in PubChem BioAssay AID248 (DTP/NCI, 2004).
The list does not hold the whole screen: it is rich in T/C values a quarter to a half above the control, in often repeated tests (any T/C) and in doses without a T/C. Further doses and runs are listed elsewhere. T/C is the treated group as % of the vehicle group. Some entries give survivors of the animals treated and no T/C: the source files T/C as zero there, which appears to mark a toxic dose or a test without result, not a measured value. Some doses without a T/C left all or most animals alive at the check, yet need not have been tolerated: the source hardly ever lists a survival T/C far under the control, and the zero likely stands for such cases as well. Counts of survivors are from the toxicity check (mostly the fifth day) where no day follows; animals may have died later. Schedule codes are those of the source, taken here to give the interval after Q, in days (D) or hours (H), and the number of doses after X. Some doses were run more than once; their values stand side by side, smallest first. Where survival is the endpoint, this PubChem deposit counts one and a half times the control or more as active, and values a quarter to a half above the control carry no call in these data; other NCI protocols may use other cut-offs. Some T/C values are followed by the survivors on the day toxicity was checked, most often the fifth; where none is given, no animal had died by that day. Counts like (3×) say how often a value occurs here.

System: L1210 leukemia ip in BDF1 mice, survival T/C
Assay: NCI In Vivo Anticancer Drug Screen. Data for tumor model L1210 Leukemia (intraperitoneal) in B6D2F1 (BDF1) mice
Details: T/C endpoint: median survival time, higher T/C = longer survival
[1] = dose: 2048.0 mg/kg/injection, schedule: Q04DX003 (oral), vehicle: saline with Tween-80

In the case of `CC(CN1CC(=O)NC(=O)C1)N1CC(=O)NC(=O)C1` (configuration not stated), the T/C (dose: 205.0 mg/kg/injection, schedule: Q04DX003 (ip), vehicle: Klucel (hydroxypropylcellulose) (HPC), evaluated on day 35) is reported as 138 % of control, the T/C (dose: 205.0 mg/kg/injection, schedule: Q04DX003 (ip), vehicle: Klucel (hydroxypropylcellulose) (HPC), evaluated on day 60) is reported as 155 % of control and the T/C (dose: 256.0 mg/kg/injection, schedule: Q04DX003 (ip), vehicle: Klucel (hydroxypropylcellulose) (HPC), evaluated on day 5) is reported as 202 % of control. For the same molecule, the T/C (dose: 256.0 mg/kg/injection, schedule: Q04DX003 (ip), vehicle: Klucel (hydroxypropylcellulose) (HPC), evaluated on day 7) was 184 % of control, the T/C (dose: 256.0 mg/kg/injection, schedule: Q04DX003 (ip), vehicle: Klucel (hydroxypropylcellulose) (HPC), evaluated on day 35) was 177 % of control and the T/C (dose: 256.0 mg/kg/injection, schedule: Q04DX003 (ip), vehicle: Klucel (hydroxypropylcellulose) (HPC), evaluated on day 60) was 205 % of control. The T/C (dose: 256.0 mg/kg/injection, schedule: Q04DX003 (oral), vehicle: saline with Tween-80) was 162, 173, 190 [8 of 10 alive], 257 % of control, the T/C (dose: 256.0 mg/kg/injection, schedule: Q08DX002 (ip), vehicle: saline with Tween-80) was 132 % of control and the T/C (dose: 300.0 mg/kg/injection, schedule: Q04DX003 (ip), vehicle: Klucel (hydroxypropylcellulose) (HPC), evaluated on day 5) was 174, 175, 195, 197 % of control. For the same molecule, the T/C (dose: 300.0 mg/kg/injection, schedule: Q04DX003 (ip), vehicle: Klucel (hydroxypropylcellulose) (HPC), evaluated on day 7) was 157 % of control, the T/C (dose: 300.0 mg/kg/injection, schedule: Q04DX003 (ip), vehicle: Klucel (hydroxypropylcellulose) (HPC), evaluated on day 24) was 155 % of control and the T/C (dose: 300.0 mg/kg/injection, schedule: Q04DX003 (ip), vehicle: Klucel (hydroxypropylcellulose) (HPC), evaluated on day 27) was 211 % of control. The T/C (dose: 300.0 mg/kg/injection, schedule: Q04DX003 (ip), vehicle: Klucel (hydroxypropylcellulose) (HPC), evaluated on day 30) was 170 % of control, the T/C (dose: 300.0 mg/kg/injection, schedule: Q04DX003 (ip), vehicle: Klucel (hydroxypropylcellulose) (HPC), evaluated on day 33) was 194 % of control and the T/C (dose: 300.0 mg/kg/injection, schedule: Q04DX003 (ip), vehicle: Klucel (hydroxypropylcellulose) (HPC), evaluated on day 34) was 197 % of control. The T/C (dose: 300.0 mg/kg/injection, schedule: Q04DX003 (ip), vehicle: Klucel (hydroxypropylcellulose) (HPC), evaluated on day 46) was 172 % of control, the T/C (dose: 300.0 mg/kg/injection, schedule: Q04DX003 (ip), vehicle: Klucel (hydroxypropylcellulose) (HPC), evaluated on day 60) was 194 % of control and the T/C (dose: 320.0 mg/kg/injection, schedule: Q04DX003 (ip), vehicle: Klucel (hydroxypropylcellulose) (HPC), evaluated on day 5) was 138 % of control. The T/C (dose: 320.0 mg/kg/injection, schedule: Q04DX003 (ip), vehicle: Klucel (hydroxypropylcellulose) (HPC), evaluated on day 7) was 242 % of control, the T/C (dose: 320.0 mg/kg/injection, schedule: Q04DX003 (ip), vehicle: Klucel (hydroxypropylcellulose) (HPC), evaluated on day 35) was 244 % of control and the T/C (dose: 320.0 mg/kg/injection, schedule: Q04DX003 (ip), vehicle: Klucel (hydroxypropylcellulose) (HPC), evaluated on day 60) was 138 % of control [7 of 8 alive]. The T/C (dose: 400.0 mg/kg/injection, schedule: Q01DX001 (ip), vehicle: Klucel (hydroxypropylcellulose) (HPC), evaluated on day 5) was 132, 139, 146, 160 (2×), 166 % of control, the T/C (dose: 400.0 mg/kg/injection, schedule: Q01DX001 (ip), vehicle: Klucel (hydroxypropylcellulose) (HPC), evaluated on day 30) was 138 (2×) and 168 % of control and the T/C (dose: 400.0 mg/kg/injection, schedule: Q01DX001 (ip), vehicle: Klucel (hydroxypropylcellulose) (HPC), evaluated on day 60) was 166 % of control. The T/C (dose: 400.0 mg/kg/injection, schedule: Q01DX001 (ip), vehicle: Klucel (hydroxypropylcellulose) (HPC), evaluated on day 75) was 166 % of control, the T/C (dose: 400.0 mg/kg/injection, schedule: Q01DX001 (ip), vehicle: other) was 149 % of control and the T/C (dose: 400.0 mg/kg/injection, schedule: Q04DX003 (ip), vehicle: Klucel (hydroxypropylcellulose) (HPC), evaluated on day 5) was 95, 99, 106, 109, 118, 130, 152, 184, 253, 258, 265 % of control. For the same molecule, the T/C (dose: 400.0 mg/kg/injection, schedule: Q04DX003 (ip), vehicle: Klucel (hydroxypropylcellulose) (HPC), evaluated on day 7) was 138, 141, 188 % of control, the T/C (dose: 400.0 mg/kg/injection, schedule: Q04DX003 (ip), vehicle: Klucel (hydroxypropylcellulose) (HPC), evaluated on day 30) was 118 [7 of 8 alive] and 138 % of control and the T/C (dose: 400.0 mg/kg/injection, schedule: Q04DX003 (ip), vehicle: Klucel (hydroxypropylcellulose) (HPC), evaluated on day 32) was 180 % of control. For the same molecule, the T/C (dose: 400.0 mg/kg/injection, schedule: Q04DX003 (ip), vehicle: Klucel (hydroxypropylcellulose) (HPC), evaluated on day 35) was 138 % of control, the T/C (dose: 400.0 mg/kg/injection, schedule: Q04DX003 (ip), vehicle: Klucel (hydroxypropylcellulose) (HPC), evaluated on day 50) was 253 % of control and the T/C (dose: 400.0 mg/kg/injection, schedule: Q04DX003 (ip), vehicle: Klucel (hydroxypropylcellulose) (HPC), evaluated on day 54) was 111 % of control. The T/C (dose: 400.0 mg/kg/injection, schedule: Q04DX003 (ip), vehicle: Klucel (hydroxypropylcellulose) (HPC), evaluated on day 60) was 94, 100, 133, 150, 184, 255 % of control, the T/C (dose: 400.0 mg/kg/injection, schedule: Q04DX003 (ip), vehicle: Klucel (hydroxypropylcellulose) (HPC), evaluated on day 75) was 255 % of control and the T/C (dose: 500.0 mg/kg/injection, schedule: Q04DX003 (ip), vehicle: Klucel (hydroxypropylcellulose) (HPC), evaluated on day 5) was 92, 98, 104, 125, 239 % of control. For the same molecule, the T/C (dose: 500.0 mg/kg/injection, schedule: Q04DX003 (ip), vehicle: Klucel (hydroxypropylcellulose) (HPC), evaluated on day 7) was 131 and 159 % of control, the T/C (dose: 500.0 mg/kg/injection, schedule: Q04DX003 (ip), vehicle: Klucel (hydroxypropylcellulose) (HPC), evaluated on day 24) was 155 % of control and the T/C (dose: 500.0 mg/kg/injection, schedule: Q04DX003 (ip), vehicle: Klucel (hydroxypropylcellulose) (HPC), evaluated on day 27) was 111 % of control [6 of 8 alive]. The T/C (dose: 500.0 mg/kg/injection, schedule: Q04DX003 (ip), vehicle: Klucel (hydroxypropylcellulose) (HPC), evaluated on day 30) was 100 % of control, the T/C (dose: 500.0 mg/kg/injection, schedule: Q04DX003 (ip), vehicle: Klucel (hydroxypropylcellulose) (HPC), evaluated on day 33) was 116 % of control and the T/C (dose: 500.0 mg/kg/injection, schedule: Q04DX003 (ip), vehicle: Klucel (hydroxypropylcellulose) (HPC), evaluated on day 34) was 98 % of control. For the same molecule, the T/C (dose: 500.0 mg/kg/injection, schedule: Q04DX003 (ip), vehicle: Klucel (hydroxypropylcellulose) (HPC), evaluated on day 35) was 133 % of control, the T/C (dose: 500.0 mg/kg/injection, schedule: Q04DX003 (ip), vehicle: Klucel (hydroxypropylcellulose) (HPC), evaluated on day 46) was 238 % of control and the T/C (dose: 500.0 mg/kg/injection, schedule: Q04DX003 (ip), vehicle: Klucel (hydroxypropylcellulose) (HPC), evaluated on day 60) was 94 and 115 % of control. The T/C (dose: 512.0 mg/kg/injection, schedule: Q04DX003 (oral), vehicle: saline with Tween-80) was 120 [8 of 10 alive], 152, 169, 196 % of control, the T/C (dose: 800.0 mg/kg/injection, schedule: Q01DX001 (ip), vehicle: Klucel (hydroxypropylcellulose) (HPC), evaluated on day 5) was 67, 69, 74, 75, 98, 150 % of control and the T/C (dose: 800.0 mg/kg/injection, schedule: Q01DX001 (ip), vehicle: Klucel (hydroxypropylcellulose) (HPC), evaluated on day 75) was 100 % of control. For the same molecule, the survivor count (dose: 800.0 mg/kg/injection, schedule: Q01DX001 (ip), vehicle: Klucel (hydroxypropylcellulose) (HPC)) was 4 of 8, 5 of 8, 7 of 8, 8 of 8, the survivor count (dose: 800.0 mg/kg/injection, schedule: Q01DX001 (ip), vehicle: steroid suspending solution) was 7 of 8 and the T/C (dose: 800.0 mg/kg/injection, schedule: Q04DX003 (ip), vehicle: Klucel (hydroxypropylcellulose) (HPC), evaluated on day 5) was 64 and 68 % of control. The T/C (dose: 800.0 mg/kg/injection, schedule: Q04DX003 (ip), vehicle: Klucel (hydroxypropylcellulose) (HPC), evaluated on day 7) was 111 and 136 % of control, the T/C (dose: 800.0 mg/kg/injection, schedule: Q04DX003 (ip), vehicle: Klucel (hydroxypropylcellulose) (HPC), evaluated on day 30) was 136 % of control and the T/C (dose: 800.0 mg/kg/injection, schedule: Q04DX003 (ip), vehicle: Klucel (hydroxypropylcellulose) (HPC), evaluated on day 32) was 110 % of control. For the same molecule, the survivor count (dose: 800.0 mg/kg/injection, schedule: Q04DX003 (ip), vehicle: Klucel (hydroxypropylcellulose) (HPC)) was 7 of 8 and 8 of 8, the survivor count (dose: 800.0 mg/kg/injection, schedule: Q04DX003 (ip), vehicle: steroid suspending solution) was 8 of 8 and the survivor count (dose: 1024.0 mg/kg/injection, schedule: Q01DX001 (ip), vehicle: saline with Tween-80) was 6 of 10. The survivor count (dose: 1024.0 mg/kg/injection, schedule: Q04DX003 (ip), vehicle: saline with Tween-80) was 6 of 10, the T/C (dose: 1024.0 mg/kg/injection, schedule: Q04DX003 (oral), vehicle: saline with Tween-80) was 87 [7 of 10 alive], 190, 215, 260 % of control and the survivor count (dose: 1024.0 mg/kg/injection, schedule: Q08DX002 (ip), vehicle: saline with Tween-80) was 6 of 10. The T/C [1] was 109 [9 of 10 alive], 130, 220 % of control and the survivor count [1] was 5 of 10.
